This test deals with T1, bacteriophage λ terminase large subunit (TerL) (bacteriophage λ) (UniProt P03708).
T1 sequence: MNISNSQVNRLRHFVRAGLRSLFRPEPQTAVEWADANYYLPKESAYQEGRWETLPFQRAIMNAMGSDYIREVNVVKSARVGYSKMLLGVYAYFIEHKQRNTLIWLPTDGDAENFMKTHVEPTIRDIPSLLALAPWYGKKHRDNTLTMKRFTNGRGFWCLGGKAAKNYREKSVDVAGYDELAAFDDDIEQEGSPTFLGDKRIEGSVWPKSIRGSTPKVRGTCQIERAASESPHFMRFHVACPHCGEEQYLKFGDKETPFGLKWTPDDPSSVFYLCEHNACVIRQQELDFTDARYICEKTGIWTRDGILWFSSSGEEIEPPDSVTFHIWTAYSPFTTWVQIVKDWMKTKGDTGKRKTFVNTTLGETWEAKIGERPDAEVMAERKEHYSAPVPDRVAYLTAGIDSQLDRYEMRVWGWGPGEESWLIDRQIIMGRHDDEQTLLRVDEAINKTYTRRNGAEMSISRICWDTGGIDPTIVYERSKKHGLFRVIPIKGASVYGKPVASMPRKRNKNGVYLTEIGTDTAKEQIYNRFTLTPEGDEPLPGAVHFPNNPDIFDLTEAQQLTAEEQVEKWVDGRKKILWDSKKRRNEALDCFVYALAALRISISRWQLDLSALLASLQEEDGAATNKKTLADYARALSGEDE
Kind of test: native MS.

No constants are given. Whether binding was seen depends on the method and setting. Some binding calls cover weakened binding; strength is not graded here.

B1: bacteriophage λ terminase small subunit (TerS) (protein, UniProt P03707 1-181)
chain: MEVNKKQLADIFGASIRTIQNWQEQGMPVLRGGGKGNEVLYDSAAVIKWYAERDAEIENEKLRREVEELRQASEADLQPGTIEYERHRLTRAQADAQELKNARDSAEVVETAFCTFVLSRIAGEIASILDGLPLSVQRRFPELENRHVDFLKRDIIKAMNKAAALDELIPGLLSEYIEQSG
As for B1, the binding result is given as “binds”.

The record behind these values is article doi:10.1101/2022.09.25.509378.
